Test results from paper PMC2822853.

Each binder was assayed against Taxol-stabilized microtubules (bovine) (assay: co-sedimentation + affinity purification with mass spectrometry; Taxol-stabilized bovine brain microtubules added to clarified Xenopus egg extract (with AMP-PNP), 20°C; centrifuged through glycerol cushions; bound proteins eluted first by 20 mM ATP, then by 0.5 M NaCl; 5-40% sucrose gradients, 1D or 2D gels, LC-MS/MS; only the target purified).

Row | Binder | binding
1 | CKI-α (protein, UniProt P67963 1-337) MASSSGSKAEFIVGGKYKLVRKIGSGSFGDIYLAINITNGEEVAVKLESQKARHPQLLYESKLYKILQGGVGIPHIRWYGQEKDYNVLVMDLLGPSLEDLFNFCSRRFTMKTVLMLADQMISRIEYVHTKNFIHRDIKPDNFLMGIGRHCNKLFLIDFGLAKKYRDNRTRQHIPYREDKNLTGTARYASINAHLGIEQSRRDDMESLGYVLMYFNRTSLPWQGLKAATKKQKYEKISEKKMSTPVEVLCKGFPAEFAMYLNYCRGLRFEEAPDYMYLRQLFRILFRTLNHQYDYTFDWTMLKQKAAQQAASSSGQGQQAQTPTGKQTDKSKSNMKGF | binds
2 | Lis1 (protein, UniProt Q90ZL4 1-410) MVLSQRQRDELNRAIADYLRSNGYEEAYSVFKKEAELDMNEELDIKYAGLLEKKWTSVIRLQKKVMELESKLNEAKEEFTSGGPIGQKRDPKEWIPRPPEKYALSGHRSPVTRVIFHPVFSVMVTASEDATIKVWDYETGDFERTLKGHTDSVQDISFDHSGKLLASCSADMTIKLWDFQGFECLRTMHGHDHNVSSVAIMPNGDHIVSASRDKTIKMWEVQTGYCVKTFTGHREWVRMVRPNQDGTLIASCSNDQTVRVWVVATKECKAELREHEHVVECISWAPESSYSTISDATGSETKRSGKPGPFLLSGSRDKTIKMWDISIGMCLMTLVGHDNWVRGVQFHPGGKFILSCADDKTIRIWDYKNKRCMKTLNAHEHFVTSLDFHKTAPYVVTGSVDQTVKVWECR | binds
3 | HOOK2 (protein, UniProt Q6NRB0 1-721) MSSKRKVELCDSLLTWMQTFQVSGPCSSYEDLTGGVAIAQVLNRIDPSWFNEAWLVRVKKDTTENWRLKVSNLKRILQSVLEYYQDVLGHPVSDDHIPDVALIGEFSNDTELRKMVQLVLGCAISCDKKEEHIQQIMTLGESVQQAVMESIQELLSKAPSDAVTSESFINYDSQSRKYYFLSEDNDEKNEILQRCHDLEQQVSLLMEEKKNMMGENRTLKEQQEQSGMGTPQLFNKKLLLLQSQIEQLQEENYRLESSRDDYRQRCQELDRDVQELQQRNQDLTGLAHESQALRDEMDVLRHSSDRVGKLESLVDSYKKKLEDLGDLRRQVKLLEERNTMYMQRTFQLEEDLHKANASRGQVESLSRQVQELHKKHSTESLRAEKWQFEFQTLKEKFEALQKERERLIAERDSLRETNDELRCSHLQQTCLGQADLLLSGSSPPLENLAAEIVPAELRETVIRLQQENKMLCAQEASYHERLCDLQNFLEESNRSKNRLESESRLQQQQIKGLKAQVEELQKQLREQGNRAEDSSQLKRKLEEHLEMLHDAHSELQKKREYIETLEPKADLNMSRKVDELQQILHQKEEDMRAMEERYKRYVDKARTVIKSLDPKQQNYIPPEIQALKNQLQEKDTRIRHLETDYEKTKVQRDQEEKLIISAWYNMGMALHQKSTDEKTQPPNGAQSFLAQQRLATNARRGQISRSHTLLPRYTDKRQSLS | binds

The remaining lines, values ahead:

Row | binding | Binder
4 | binds | Mgc80361 (protein, UniProt Q6AXA1 1-385) MEKQTEVGVLLTEPGTLHPADEPRTDGGGAAADNGITIRQGSIRAGVGLKEYVAQVLRQLGYNGPLCCEEALVHSAELGAASQHFTSLCVWLVSELKVVSSMVENISPTEGPEDAETFQLEMSGVVNELHCPYTALTTGDVTCRLTNLDNCLQLLVFLSTELQAARIISNRKVPAMGSEGGSTEAVEELKQVGEAVGMPEHLLAVPAAEYMRMLQIKIAEITDAVPDFSRTAPLLKTELQPSQWEKLADLHWQLLREYECRMRMLVTRCDVTVQSFYWSERAKELGAAMKEVYWPLRQSLKTETRITMAHLLAAREEDSRILHTCSAVFRQNTQSSVNKVLMAGNVPDRGGRPNEIEPPMPTWTKRREGGGGQQWWGKRNKRRKK
5 | binds | XKid (protein, UniProt Q9I869 1-651) MVLTGPLQRESVSMAKRVSMLDQHKKSSCARVRVAVRLRPYMDEKDEAKATTVCVRGLDSQSLEIVNWRNQLETMQYQFDAFYGDSASQREIYMGSVCHILPHLLIGQNASVFAYGPTGAGKTHTMLGNPNQPGVIPRAVRDLLQMSRTAASAPENENWTYTINMSYVEIYQEKVMDLLEPKNKDLPIREDKDHNILIPGVTQKMINSFADFDEHFIPASQNRTVASTKLNDRSSRSHAVLLIKVQKSQQVVPFRQLTGKLYLIDLAGSEDNRRTGNQGIRLKESGAINSSLFTLSKVVDALNQGLPRIPYRDSKLTRLLQDSLGGSAHSVMITNIAPEQTYYFDTLTALNFAAKSKQIINKPFSQETTQTVVQPAMKRPREETGHIAGSQKRKKSKNDSTESSPNSSMDTAGKQKLNLATLDPAVVERLLKLDKILTEKGKKKAQLLSTPKRERMALLKKWEESQMEIERLKEKQKELEQKAMEAEARLEKSNNSDLSDSSVSENTFRAPLRGRNTSTAKVKKVLRVLPMQGNSQLQSTVEEGIPVFEKKKKKKQVTCEGLENQPTWEMNMRTDLLESGKERILKLLNTGSVKELKSLQRIGDKKAKLIIGWREVNGPFKNVEELACLEGISAKQVSSFIKANIMSSIAS
6 | binds | MVP (protein, UniProt Q6PF69 1-849) MSEESIIRIPPYCYIHVLDQNSNISRVETGPKTYIRQDNERVLHHPQRMVMVPPRHYCVIQNPVQRDSEEKVLFDDVGQAKLSHGDKEIRLTQDPFPLYPGEELQLGITPLTVVLANTALHLKALLDLEDESGKYVAGDEWLFEGPGTYIPRKEVEVVQTIQATVIRHNQAIRLRARKECKDREEQDRVTGEEWLVKKVGAYLPGVFEEVVDIVDAFVLTDKRALHIRATKTFRGDKGNLRRTGEEWLVTMEDTEAYIPNVYEEVVGVVDITTLNSRQYCVILDPVGEDGKPQLGQKRVVKGEKSFFLQPGESLEYGIQDVYILSEEEGLVLRALQVLEDKDEEGTEVERKPGDRWMIRGPIEYAPPVEVEVVVRREAIPLDENEGIYVRDIKTGKVRAVVGQSYMLTQDEELWEKELPANVETLLASGKDPLADRSERQGQAQEVQPRDKTRAVTYRVPHNAAVQVYDYREKKSRVVFGPELVVLGPDEQFTVLSLSGSTPKRANVIKAICLLLGPDFCTDIINIETADHARLQIKLSYNWHFDIKDRKDPAEASKLFTVPDFVGDACKAIASRIRGAVASVQFDDFHKNSNRIICSAVFGFDEAMKIRNSFRFPQNNLIITSVDIQTVEPVDQRTRDALQKSVQLAIEITTNSQEATARHEAERLEQEAKGRLERQRITDQAEAEKARKELLELEALSTIVESTGAAKAEAESKAEAARIEGEGAVLQAKLRAEALAIETDAELQRLRQARSEELRYLQDKNKLEVQKTQELAEIEIKKFREMVESIGSGTLRDIALAGPELQVKMLRGLGIQSTLITDGSTPINLFSTAHGLLGLTSKPAQEKESD
7 | binds | Nif3l1bp1/THOC7 (protein, UniProt Q7SZ78 1-201) MGAVTDDEVIRKRLLIDGDGAGDDRRINLLVKSFVKWCNSGSQEEGYSQYQRMLSSLSQCEYSMGKTLLVHDMNLREMENYEKIYVDIESSIAAAHEKIAECKKQILQAKRIRKNRQEYDALAKVIEQHPDRHETLKQLEALDKELKQLSHTKENAEDKLELRRKQFHVLLSTIHELQQTLENDDKLAEESQESPMETQNP

These are yes or no findings as the source states them, for the method shown. In cells and extracts the contact can be indirect. These calls come from enrichment with a bait or labelling near it, and not all partners need be listed.
